Experimental data taken from patent US7671212B2, “Isothiazole dioxides as CXC- and CC-chemokine receptor ligands” (Schering Corporation, priority 2003, dated 2010).
Some results were stated once for a whole list of compounds, not compound by compound. Some ranges recur; such a range may be that of the whole group of compounds.

Molecular target: T1, hCXCR1 (Homo sapiens, UniProt P25024)
T1 construct: purchased Biosignal / Biosignal Packard; Euroscreen (alternative protocol); host or cells: CHO
T1 sequence (P25024 1-350): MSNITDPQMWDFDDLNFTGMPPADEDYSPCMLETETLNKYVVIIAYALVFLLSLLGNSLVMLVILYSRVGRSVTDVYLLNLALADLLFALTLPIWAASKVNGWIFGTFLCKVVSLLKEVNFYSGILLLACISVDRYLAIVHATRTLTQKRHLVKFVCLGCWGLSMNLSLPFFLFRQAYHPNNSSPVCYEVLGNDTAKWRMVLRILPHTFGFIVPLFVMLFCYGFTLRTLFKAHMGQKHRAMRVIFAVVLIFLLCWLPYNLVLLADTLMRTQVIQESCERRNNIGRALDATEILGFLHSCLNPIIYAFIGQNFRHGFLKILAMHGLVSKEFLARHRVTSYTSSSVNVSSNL
Experiment: CXCR1 SPA assay ([125I]-IL-8 binding, incl. alternative Biosignal Packard and Euroscreen membrane protocols)
Details: hCXCR1-CHO membranes, range printed with mixed units nM to μM, read-out: Ki, CXCR1 assay (range over examples)
Method: For each well of a 96 well plate, a reaction mixture of 10 μg hCXCR1-CHO overexpressing membranes (Biosignal) and 200 μg/well WGA-SPA beads (Amersham) in 100 μl was prepared in CXCR1 assay buffer (25 mM HEPES, pH 7.8, 2 mM CaCl2, 1 mM MgCl2, 125 mM NaCl, 0.1% BSA) (Sigma). A 0.4 nM stock of ligand, [125I]-IL-8 (NEN) was prepared in the CXCR1 assay buffer. 20× stock solutions of test compounds were prepared in DMSO (Sigma). A 6× stock solution of IL-8 (R&D) was prepared in CXCR2 assay buffer. The above solutions were added to a 96-well assay plate (PerkinElmer) as follows: 10 μl test compound or DMSO, 40 μl CXCR1 assay buffer or IL-8 stock, 100 μl of reaction mixture, 50 μl of ligand stock (Final [Ligand]=0.1 nM).
Alternative CXCR1 SPA Assay
Protocol Using CXCR1-Expressing Membranes from Biosignal Packard
For each 50 μl reaction, a working stock of 0.25 μg/μl hCXCR1-CHO over-expressing membranes with a specific activity of 0.05 pmol/mg (Biosignal Packard) and 25 μg/μl WGA-SPA beads (Perkin Elmer Life Sciences) was prepared in CXCR1 assay buffer (25 mM HEPES, pH 7.8, 0.1 mM CaCl2, 1 mM MgCl2, 100 mM NaCl) (Sigma). This mixture was incubated on ice for 30 minutes and then centrifuged at 2500 rpm for 5 minutes. The beads and membranes were resuspended in CXCR1 assay buffer to the same concentrations as in the original mixture. A 0.125 nM stock of ligand, [^125I]-IL-8 (Perkin Elmer Life Sciences), was prepared in the CXCR1 assay buffer. Test compounds were first serially diluted by half-logs in DMSO (Sigma) and then diluted 20-fold in CXCR1 assay buffer. The above solutions were added to a Corning NBS (non-binding surface) 96-well assay plate as follows: 20 μl test compound or 5% DMSO (final [DMSO]=2%), 20 μl of membranes and SPA bead mixture (Final [membrane]=5 μg/reaction; Final [SPA bead]=500 μg/reaction), 10 μl of ligand stock (Final [^125I-IL-8]=0.025 nM). The assay plates were incubated for 4 hours before cpm/well were determined in a Microbeta Trilux counter (Perkin Elmer Life Sciences). IC50 values were quantified using nonlinear regression analysis in GraphPad Prism.
Protocol Using CXCR1-expressing Membranes from Euroscreen
For each 50 μl reaction, a working stock of 0.025 μg/μl hCXCR1-CHO over-expressing membranes with a specific activity of 3.47 pmol/mg (Euroscreen) and 5 μg/μl WGA-SPA beads (Perkin Elmer Life Sciences) was prepared in CXCR1 assay buffer (25 mM HEPES, pH 7.8, 2.0 mM CaCl2, 1 mM MgCl2, 125 mM NaCl) (Sigma). This mixture was incubated on ice for 5 minutes. A 0.125 nM stock of ligand, [^125I]-IL-8 (Perkin Elmer Life Sciences), was prepared in the CXCR1 assay buffer. Test compounds were first serially diluted by half-logs in DMSO (Sigma) and then diluted 13.3-fold in CXCR1 assay buffer. The above solutions were added to a Corning NBS (non-binding surface) 96-well assay plate as follows: 20 μl test compound or 7.5% DMSO (final [DMSO]=3%), 20 μl of membranes and SPA bead mixture (Final [membrane]=0.5 μg/reaction; Final [SPA bead]=100 μg/reaction), 10 μl of ligand stock (Final [^125I-IL-8]=0.025 nM). The assay plates were incubated for 4 hours before cpm/well were determined in a Microbeta Trilux counter (Perkin Elmer Life Sciences). IC50 values were quantified using nonlinear regression analysis in GraphPad Prism.

| SMILES | Ki [nM] |
| --- | --- |
| Cc1cc([C@H](NC2=NS(=O)(=O)C=C2Nc2cccc(C(=O)N(C)C)c2O)C(C)C)oc1C [Example 6] | 345 to 25000 |
| CCOC(=O)C1=C(Nc2cccc(C(=O)N(C)C)c2O)C(N[C@@H](c2cc(C)c(C)o2)C(C)C)=NS1(=O)=O [Example 5] | 345 to 25000 |
| CCOC(=O)C1=C(N[C@H](CC)c2ccccc2)C(Nc2cccc(C(=O)N(C)C)c2O)=NS1(=O)=O [Example 3] | 345 to 25000 |
| CCOC(=O)C1=C(Nc2cccc(C(=O)N(C)C)c2O)C(N[C@H](CC)c2ccc(C)o2)=NS1(=O)=O [Example 1] | 345 to 25000 |
| CC[C@@H](NC1=NS(=O)(=O)C=C1Nc1cccc(C(=O)N(C)C)c1O)c1ccc(C)o1 [Example 2] | 345 to 25000 |
| CC[C@@H](NC1=CS(=O)(=O)N=C1Nc1cccc(C(=O)N(C)C)c1O)c1ccccc1 [Example 4] | 345 to 25000 |
